Results are given in words; binding and its absence hold for the method and conditions named. Binding seen in cells or lysates may run through a third protein. Some entries that bind do so weakly or less than the wild type.
Target: Capicua homolog (Cic) (mouse (endogenous in cerebellum)) (UniProt Q924A2)
Test: co-IP; cerebellar extracts of wild-type, Atxn1-/- and Atxn1-/-; Atxn1L dp/+ mice in TST buffer (10 mM Tris-HCl pH 7.5, 0.9% NaCl, 0.05% Tween 20) diluted in PBS; precipitated overnight at 4°C with polyclonal guinea pig anti-Cic serum on protein A Sepharose (pre-immune serum as control); western blot for Atxn1L

Protein sequences, listed by entry. Tags and fused reporters are not part of them.
UniProt Q924A2: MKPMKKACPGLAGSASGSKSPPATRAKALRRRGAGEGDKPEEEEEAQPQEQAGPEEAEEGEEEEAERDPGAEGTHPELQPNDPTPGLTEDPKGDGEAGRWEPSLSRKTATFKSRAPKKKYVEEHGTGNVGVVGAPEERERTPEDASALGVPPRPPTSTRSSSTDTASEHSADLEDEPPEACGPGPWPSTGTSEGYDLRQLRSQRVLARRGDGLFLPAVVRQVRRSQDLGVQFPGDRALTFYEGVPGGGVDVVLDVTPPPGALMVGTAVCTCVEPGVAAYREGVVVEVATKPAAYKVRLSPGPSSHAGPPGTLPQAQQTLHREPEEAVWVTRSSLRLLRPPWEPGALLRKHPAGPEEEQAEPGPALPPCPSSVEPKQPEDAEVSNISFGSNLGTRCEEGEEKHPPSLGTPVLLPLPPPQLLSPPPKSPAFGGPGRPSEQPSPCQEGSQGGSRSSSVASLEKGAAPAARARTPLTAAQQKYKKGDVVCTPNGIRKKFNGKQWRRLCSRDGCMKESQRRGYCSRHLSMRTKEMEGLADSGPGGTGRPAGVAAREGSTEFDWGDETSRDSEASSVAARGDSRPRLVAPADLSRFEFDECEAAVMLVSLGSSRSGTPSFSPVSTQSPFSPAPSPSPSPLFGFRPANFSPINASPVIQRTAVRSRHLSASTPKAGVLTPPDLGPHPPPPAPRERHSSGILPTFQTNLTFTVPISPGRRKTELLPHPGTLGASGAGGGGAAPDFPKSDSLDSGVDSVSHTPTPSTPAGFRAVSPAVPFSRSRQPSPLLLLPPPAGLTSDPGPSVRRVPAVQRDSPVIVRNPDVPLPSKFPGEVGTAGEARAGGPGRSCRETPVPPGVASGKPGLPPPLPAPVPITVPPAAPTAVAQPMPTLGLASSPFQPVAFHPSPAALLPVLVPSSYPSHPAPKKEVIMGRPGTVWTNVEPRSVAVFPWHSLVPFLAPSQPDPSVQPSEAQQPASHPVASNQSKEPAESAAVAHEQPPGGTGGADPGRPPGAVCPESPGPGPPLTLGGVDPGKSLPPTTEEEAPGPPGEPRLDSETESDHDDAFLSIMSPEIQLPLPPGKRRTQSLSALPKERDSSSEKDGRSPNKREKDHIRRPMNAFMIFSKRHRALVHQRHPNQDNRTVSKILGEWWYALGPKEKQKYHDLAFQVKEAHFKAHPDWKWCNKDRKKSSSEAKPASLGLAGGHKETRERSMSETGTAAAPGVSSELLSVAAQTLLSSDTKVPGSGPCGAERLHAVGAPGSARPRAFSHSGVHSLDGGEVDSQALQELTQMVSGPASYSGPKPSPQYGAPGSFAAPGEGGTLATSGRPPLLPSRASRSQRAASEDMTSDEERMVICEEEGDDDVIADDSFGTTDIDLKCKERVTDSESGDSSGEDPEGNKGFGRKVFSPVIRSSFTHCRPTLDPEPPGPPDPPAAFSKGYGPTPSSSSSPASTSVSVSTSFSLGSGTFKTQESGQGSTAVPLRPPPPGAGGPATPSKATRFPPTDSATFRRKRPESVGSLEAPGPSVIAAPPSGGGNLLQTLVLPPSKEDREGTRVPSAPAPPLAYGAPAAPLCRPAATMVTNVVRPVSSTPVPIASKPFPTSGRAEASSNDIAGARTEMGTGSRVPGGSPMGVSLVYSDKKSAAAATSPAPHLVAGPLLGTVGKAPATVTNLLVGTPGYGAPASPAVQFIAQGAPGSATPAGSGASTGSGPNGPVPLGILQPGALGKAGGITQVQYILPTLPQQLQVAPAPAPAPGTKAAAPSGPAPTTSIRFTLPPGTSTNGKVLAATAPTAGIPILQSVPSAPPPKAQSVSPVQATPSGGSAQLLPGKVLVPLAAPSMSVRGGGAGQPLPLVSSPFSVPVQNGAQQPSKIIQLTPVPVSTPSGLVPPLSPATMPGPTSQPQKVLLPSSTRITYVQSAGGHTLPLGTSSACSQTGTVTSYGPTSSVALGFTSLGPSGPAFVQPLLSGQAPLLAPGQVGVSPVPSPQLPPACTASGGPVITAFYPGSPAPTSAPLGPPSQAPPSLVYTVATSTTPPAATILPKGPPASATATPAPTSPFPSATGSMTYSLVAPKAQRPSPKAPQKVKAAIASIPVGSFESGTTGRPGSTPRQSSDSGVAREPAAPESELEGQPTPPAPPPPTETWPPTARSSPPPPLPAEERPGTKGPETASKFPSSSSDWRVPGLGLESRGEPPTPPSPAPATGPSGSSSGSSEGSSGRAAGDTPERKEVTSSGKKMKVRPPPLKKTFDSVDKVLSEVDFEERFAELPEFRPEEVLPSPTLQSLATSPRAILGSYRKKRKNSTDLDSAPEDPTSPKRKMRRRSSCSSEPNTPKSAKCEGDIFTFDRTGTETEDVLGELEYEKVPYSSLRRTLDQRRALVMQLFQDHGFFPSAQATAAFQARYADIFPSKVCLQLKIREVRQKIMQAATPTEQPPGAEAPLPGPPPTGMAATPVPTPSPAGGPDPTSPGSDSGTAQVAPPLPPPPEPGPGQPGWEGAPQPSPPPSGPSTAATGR

binding: binds
B1: Ataxin-1-Like (protein, UniProt P0C7T6 1-687)
chain: MKPVHERSQECLPPKKRDLPVTSEDMGRTTSCSTNHTPSSDASEWSRGVVVAGQSQTGARVSLGGDGTEAITGLTVDQYGMLYKVAVPPATFSPTGLPSVVNMSPLPPTFNVASSLIQHPGIHYPPVHYAQLPSTSLQFIGSPYSLPYAVPPNFLPSPLLSPSANLATTHLPHFVPYASLLAEEATPPPQAASPAQSFNKSSSATSPPGQLPHHSNTQPLDLAPGRMPIYYQMSRLPAGYTLHETSTAGASPILTPQEGQSALEAAAANGQRQRERNVRRESEALDSASSKGESQGLVPVVECMADGQLFSGSQTPRVEVAAPAHRGTPDTDLEVQRVVGALASQDYRVVAAQRKDEPSPLNLSHHNLDHQGEGRGSARNPTELVEKSQARVFYPQSHQEPVKHRPLPKAMVVANGNLVPTGTDPSLLPVGSEILVASSLDLQARATFPDKEPTPPPVTSSHLPSHFMKGAIIQLATGELKRVEDLQTQDFVRSAEVSGGLKIDSSTVVDIQESQWPGFVMLHFVVGEQQSKVSIEVPPEHPFFVYGQGWSSCSPGRTAQLFSLPCHRLQVGDVCISISLQSLNSNSVSQASCAPPGQLGTPRERPERTVLGPRDLCDSEGKNQPSGEGSRVGEPSQPEPGAQACWPAPSFQRFSMQGEEARAAMLRPSFIPQEVKLSIEGRSNAGK
